Assay results published in patent US20220324970A1.
No constants are given. Whether binding was seen depends on the method and setting. Some results given as binding are weak or reduced against the parent protein; the word gives no strength.

By UniProt entry, the sequences of proteins in these tests, tags left out. Where a name states a change or a piece, a line headed by the entry shows the natural chain unless it says otherwise.
UniProt P01833: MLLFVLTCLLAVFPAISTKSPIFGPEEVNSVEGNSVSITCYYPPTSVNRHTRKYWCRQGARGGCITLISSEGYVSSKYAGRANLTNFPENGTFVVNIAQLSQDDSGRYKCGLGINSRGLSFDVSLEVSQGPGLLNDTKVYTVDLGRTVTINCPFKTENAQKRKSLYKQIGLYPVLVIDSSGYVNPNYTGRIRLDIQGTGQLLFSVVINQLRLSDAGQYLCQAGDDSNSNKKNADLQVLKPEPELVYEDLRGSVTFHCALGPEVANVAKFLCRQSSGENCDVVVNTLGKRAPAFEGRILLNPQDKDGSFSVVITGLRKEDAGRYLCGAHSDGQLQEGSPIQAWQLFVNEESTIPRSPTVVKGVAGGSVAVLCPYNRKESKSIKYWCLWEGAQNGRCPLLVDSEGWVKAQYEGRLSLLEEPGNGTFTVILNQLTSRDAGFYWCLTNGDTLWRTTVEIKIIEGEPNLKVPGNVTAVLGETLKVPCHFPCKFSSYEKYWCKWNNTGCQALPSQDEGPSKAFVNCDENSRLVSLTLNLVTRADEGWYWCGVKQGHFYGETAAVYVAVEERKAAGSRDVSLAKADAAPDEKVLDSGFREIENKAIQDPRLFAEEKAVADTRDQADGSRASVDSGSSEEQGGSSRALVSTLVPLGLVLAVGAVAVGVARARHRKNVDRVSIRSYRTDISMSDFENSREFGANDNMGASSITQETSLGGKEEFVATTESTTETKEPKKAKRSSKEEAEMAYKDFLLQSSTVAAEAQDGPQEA

Columns and labels:
[1] = target: recombinant dimeric IgA2 construct; assay: BLI: hpIgR ECD pre-complexed with VHH5-mono-Fc over immobilized dIgA2
[2] = target: recombinant dimeric IgA2 construct; assay: BLI: hpIgR pre-complexed with VHH11 binding to immobilized IgA
[3] = target: recombinant dimeric IgA2 construct; assay: BLI: hpIgR ECD pre-complexed with VHH2-mono-Fc over immobilized dIgA2
[4] = target: recombinant dimeric IgA2 construct; assay: BLI: hpIgR alone binding to immobilized IgA
[5] = target: recombinant dimeric IgA2 construct; assay: BLI: hpIgR ECD pre-complexed with VHH11-mono-Fc over immobilized dIgA2
[6] = target: recombinant dimeric IgA2 construct; assay: BLI: hpIgR pre-complexed with VHH2 binding to immobilized IgA
[7] = target: recombinant dimeric IgA2 construct; assay: BLI: hpIgR pre-complexed with VHH3 binding to immobilized IgA
[8] = target: recombinant dimeric IgA2 construct; assay: BLI: hpIgR ECD alone over immobilized dIgA2 (amine-reactive sensor), 2:1 fit
[9] = target: recombinant dimeric IgA2 construct; assay: BLI: hpIgR ECD pre-complexed with VHH4-mono-Fc over immobilized dIgA2
[10] = target: recombinant dimeric IgA2 construct; assay: BLI: hpIgR ECD pre-complexed with VHH10-mono-Fc over immobilized dIgA2
[11] = target: recombinant dimeric IgA2 construct; assay: BLI: hpIgR pre-complexed with VHH5 binding to immobilized IgA
[12] = target: recombinant dimeric IgA2 construct; assay: BLI: hpIgR pre-complexed with VHH4 binding to immobilized IgA
[13] = target: recombinant dimeric IgA2 construct; assay: BLI: hpIgR ECD pre-complexed with VHH6-mono-Fc over immobilized dIgA2
[14] = target: recombinant dimeric IgA2 construct; assay: BLI: hpIgR pre-complexed with VHH10 binding to immobilized IgA
[15] = target: recombinant dimeric IgA2 construct; assay: BLI: hpIgR ECD pre-complexed with VHH9-mono-Fc over immobilized dIgA2
[16] = target: recombinant dimeric IgA2 construct; assay: BLI: hpIgR pre-complexed with VHH12 binding to immobilized IgA
[17] = target: recombinant dimeric IgA2 construct; assay: BLI: hpIgR pre-complexed with VHH7 binding to immobilized IgA
[18] = target: recombinant dimeric IgA2 construct; assay: BLI: hpIgR ECD pre-complexed with VHH12-mono-Fc over immobilized dIgA2
[19] = target: recombinant dimeric IgA2 construct; assay: BLI: hpIgR ECD pre-complexed with VHH3-mono-Fc over immobilized dIgA2
[20] = target: recombinant dimeric IgA2 construct; assay: BLI: hpIgR pre-complexed with VHH6 binding to immobilized IgA
[21] = target: recombinant dimeric IgA2 construct; assay: BLI: hpIgR pre-complexed with VHH9 binding to immobilized IgA
[22] = target: recombinant dimeric IgA2 construct; assay: BLI: hpIgR ECD pre-complexed with VHH7-mono-Fc over immobilized dIgA2

Measured: binding

human pIgR extracellular domain (ECD) (from UniProt P01833 19-638) (receptor)
binds: all assays above
